Test results published in patent publication US20230257454A1 (STAIDSON BEIJING BIOPHARMACEUTICALS, published 2023).

Legend:
[1] = biological target: cynomolgus monkey C5a (cynomolgus monkey); experiment: ELISA on cynomolgus monkey C5a (FIG. 2C)
[2] = biological target: cynomolgus monkey C5a (cynomolgus monkey); experiment: ELISA, plate coated with cynomolgus monkey C5a, full-length antibody titrated, OD410

Row | binding [1] | binding [2] | Binder
1 | binds | binds | Cab01 (reformatted as human IgG4) (antibody, V domains shown) VH: EVQLVESGGGMVQPGGSLRVSCAASGFTFTKYYMQWVRQAPGKGPEWVGLIRNKANGGTAEYVASVKDRFTISRDDSKSIAYLQMSSLKTEDTAVYYCVMRDNGYHWGQGVLVTVSS VL: DIVLTQTPLSLPVTPGEPASISCRSSQRLLHSDGYTYLDWYLQKPGQSPQLLIYGGSNRASGVPDRFSGSGSGTDFTLKISKVEAEDVGVYYCMQHKALPLTFGGGTKVEIK
2 | binds | binds | Cab13 (reformatted as human IgG4) (antibody, V domains shown) VH: VVQLVESGGGLVQPGGSLKVSCAASGFTFSDYYMQWVRQAPGKGPEWVGLIRNKAIGGTTQYAASVKGRFTISRDDSKSIVYLQMSSLKTEDTAVYYCVSRAGPPGLSWGQGVLVTISS VL: DIVMIQNPLSLPVTPGEPASISCRSSQSLLASDGYNYMDWYLQKPGQSPKVLIYGGSNRASGVPDRFSGSGSGTDFTLKITKVEAEDVGIYYCMQHKVLPPTFGQGTKLEIK
3 | binds | binds | Cab03 (reformatted as human IgG4) (antibody, V domains shown) VH: EVQLVESGGGLVQPGGSLKVSCAASGFIFSDYYMQWVRQAPGKGPEWVGLIRKKVNGGTTEYAASVKGRFTISRDDSKSIVYLQMSSLKIEDTAVYYCVSRAGPPGLTWGQGVLVTVSS VL: DIVLTQTPLSLAVSPGEPASISCRSSQSLLASDGYTYLDWYLQKPGQSPQILIYGGSNRASGVPDRFSGRGSGTDFTLKITKVEAEDVGVYYCLQHRALPPTFGQGTKLEIK

Row | Binder | binding [1] | binding [2]
4 | Cab05-IgG4 (antibody, V domains shown, Full-length human IgG4 with a human kappa or lambda light chain constant domain) VH: EMQLVESGGGLVQPGGSLRLSCAASGFTFSDYYMQWVRQAPGKGPEWVGLIRNKAVGGTTQYAASVKGRFTISRDDSKNSVYLQMNSLKTEDTAVYYCVSRAGPPGLSWGQGVLVTVSS VL: DIVMTQSPLSLPVTPGEPASISCRSSQSLLASDGYNYIDWYLQKPGQSPQLLIYGGSNRASGVPDRFSGSGSGTDFTLKISRVEAEDVGVYFCLQHRALPPTFGQGTKLEIK | binds | binds
5 | Cab42-IgG1 (antibody, V domains shown, Full-length human IgG1; It was biotinylated in the peptide-Fc ELISA) VH: EMQLVESGGGLVQPGGSLRLSCAASGFTFSDYYMQWVRQAPGKGPEWVGLIRNKAVGETTQYAASVKGRFTISRDDSKNSVYLQMNSLKTEDTAVYYCVSRAGPPGLSWGQGVLVTVSS VL: DIVMTQSPLSLPVTPGEPASISCRSSQSLLASDAYNYIDWYLQKPGQSPQLLIYGGSNRASGVPDRFSGSGSGTDFTLKISRVEAEDVGVYFCLQHRALPPTFGQGTKLEIK | binds | binds

No constants are given. Whether binding was seen depends on the method and setting. Binding can be weak; no strength is given.
